# No constants are given. Whether binding was seen depends on the method and setting. In cells and extracts the contact can be indirect. Sequences can lack the tags named with a protein.
# Target: T1, Myc-tagged porcine IKKε (pcDNA-Myc-IKKε) (porcine) (UniProt M9MMN5)
# T1 sequence: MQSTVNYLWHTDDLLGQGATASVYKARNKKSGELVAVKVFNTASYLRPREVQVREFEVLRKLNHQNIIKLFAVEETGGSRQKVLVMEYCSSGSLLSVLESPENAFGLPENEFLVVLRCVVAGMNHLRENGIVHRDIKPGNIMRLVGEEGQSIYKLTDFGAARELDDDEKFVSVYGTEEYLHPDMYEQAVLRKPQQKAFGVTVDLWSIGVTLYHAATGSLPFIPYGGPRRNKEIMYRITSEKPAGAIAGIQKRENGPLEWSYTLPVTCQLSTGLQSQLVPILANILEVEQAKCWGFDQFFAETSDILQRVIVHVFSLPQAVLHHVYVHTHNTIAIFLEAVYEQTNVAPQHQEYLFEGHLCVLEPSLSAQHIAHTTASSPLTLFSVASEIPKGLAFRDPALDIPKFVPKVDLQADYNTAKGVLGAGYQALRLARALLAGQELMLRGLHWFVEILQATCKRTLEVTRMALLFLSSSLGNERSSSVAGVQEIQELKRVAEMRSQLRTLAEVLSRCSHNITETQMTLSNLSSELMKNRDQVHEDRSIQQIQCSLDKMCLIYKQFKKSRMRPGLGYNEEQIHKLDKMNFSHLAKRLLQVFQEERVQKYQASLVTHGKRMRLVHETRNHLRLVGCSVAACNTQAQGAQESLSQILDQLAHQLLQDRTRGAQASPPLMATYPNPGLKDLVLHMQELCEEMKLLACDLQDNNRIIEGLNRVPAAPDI
# Test: co-IP
substance,measurement,value
"GFP-tagged PRRSV non-structural protein 5 (pEGFP-N1-Nsp5) (PRRSV-2, strain XJ17-5)",binding,no binding

# From paper PMC12377093
